A short description of the series: general procedure: Fmoc solid-phase peptide synthesis; Rink-Amide-MBNA; HCTU/DIPEA. To be noted: whole synthesis.

The values below come from US9789213B2 (LONDON HEALTH SCIENCES CENTRE RESEARCH INC., priority 2012, dated 2017).

Where a sequence shows no end group, the ends are not given. [ ]: non-standard residue; d: D form. Nle = CCCC[C@H](N)C(=O)O

H-HMYFLLGH(Ahx)(LysDOTA)-NH2: the “final purity (method not given)” value was more than 95%.

As for H-h(DabN3)YFLLGH-NH2, the “final purity (method not given)” value is given as more than 99%.

Ac-KLQLVLAPLHSLAS-NH2: the “final purity (method not given)” value is reported as more than 98%.

Turning to H-H[Nle]YFLLGH-NH2, the “final purity (method not given)” value was more than 99%.

In the case of H-CKLQLVLAPLHSLAS-NH2, the “final purity (method not given)” value is given as more than 90%.

On to H-HMYFLLGH(Ahx)(LysN3)-NH2, for which the “final purity (method not given)” value is given as more than 99%.

With H-h(Nle)YFLLGH-NH2, the “final purity (method not given)” value is reported as more than 99%.

As for H-HMYFLLGH-NH2, the “final purity (method not given)” value is given as more than 99%.

For the substance H-H(DabN3)YFLLGH-NH2, the “final purity (method not given)” value is more than 99%.

As to H-hMYFLLGH-NH2, the “final purity (method not given)” value is reported as more than 99%.

In turn, GSLLVHSFQQLG gave an isolated yield of 9.7%.

HMYFLLGH displayed an isolated yield of 9.8%.
